Record: PubChem BioAssay AID1224828 (NIAID, 2016)
Purpose: 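Regulators linking TLR4 signalling to p65 nuclear translocation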 (primary screen). System: mouse RAW264.7 G9 macrophage reporter cells (GFP-p65, Tnf promoter-mCherry). Reagents: siRNA pool against mouse genes, 100 nM. Time to read-out: 2 days siRNA transfection, then 40 min LPS before fixation. Challenge: LPS (Salmonella minnesota R595) at 10 ng/ml. Measured: 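Microscopy ratio of nuclear to perinuclear-ring GFP-p65 signal, scaled to the plate median; gene score is the average of two replicate robust z-scores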. Scale: p65 translocation robust z-score: higher = more nuclear NF-kappaB p65 after LPS than the plate median; nuclear/cytoplasmic p65 ratio: higher = more nuclear NF-kappaB p65. Call rule: 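Active if robust z is above 3.3 (negative regulators) or below -1.56, the Tlr4 control median (positive regulators); activity score 50 or more; control wells not called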. Meaning of the calls: active = hit (p65 shift raised or lowered); inactive = no clear change.
Here is a random part of about 17,000 reagents tested. 762 of them (4.5%) were called active. 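Active calls include both raised and lowered p65 entry, mostly lowered; wells with fewer than 50 cells lack a z-score.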 Raw values are not corrected between plates. Unmarked entries are inactive.

Against Cdkl2 (cyclin dependent kinase like 2), the entry reads p65 translocation robust z-score 0.31; nuclear/cytoplasmic p65 ratio, rep 1 = 1.77; nuclear/cytoplasmic p65 ratio, rep 2 = 1.4; low cell count flag enough cells to score. With knock-down of Jph4 (junctophilin 4), the record shows p65 translocation robust z-score -0.05; nuclear/cytoplasmic p65 ratio, rep 1 = 1.36; nuclear/cytoplasmic p65 ratio, rep 2 = 1.6; low cell count flag enough cells to score. Against Rbpj, the values are p65 translocation robust z-score 0.19; nuclear/cytoplasmic p65 ratio, rep 1 = 1.6; nuclear/cytoplasmic p65 ratio, rep 2 = 1.49; low cell count flag enough cells to score. Atp2a1 (ATPase, Ca++ transporting, cardiac muscle, fast twitch 1) showed p65 translocation robust z-score 0.27; nuclear/cytoplasmic p65 ratio, rep 1 = 1.65; nuclear/cytoplasmic p65 ratio, rep 2 = 1.66; low cell count flag enough cells to score. Silencing of Sox6 (SRY (sex determining region Y)-box 6) came out at: nuclear/cytoplasmic p65 ratio, rep 1 = 1.28; nuclear/cytoplasmic p65 ratio, rep 2 = 1.34; low cell count flag fewer than 50 cells per well; well left out of scoring. Against Ehd3 (EH-domain containing 3), the values are p65 translocation robust z-score -1.09; nuclear/cytoplasmic p65 ratio, rep 1 = 1.28; nuclear/cytoplasmic p65 ratio, rep 2 = 1.26; low cell count flag enough cells to score.

After knock-down of Nrk (Nik related kinase), the record shows p65 translocation robust z-score -0.48; nuclear/cytoplasmic p65 ratio, rep 1 = 1.68; nuclear/cytoplasmic p65 ratio, rep 2 = 1.26; low cell count flag enough cells to score. Against Or52a5b (olfactory receptor family 52 subfamily A member 5B), the values are p65 translocation robust z-score -1.66 (active); nuclear/cytoplasmic p65 ratio, rep 1 = 1.18; nuclear/cytoplasmic p65 ratio, rep 2 = 1.08; low cell count flag enough cells to score. After knock-down of Tsks (testis-specific serine kinase substrate), the screen gave p65 translocation robust z-score -0.04; nuclear/cytoplasmic p65 ratio, rep 1 = 1.69; nuclear/cytoplasmic p65 ratio, rep 2 = 1.37; low cell count flag enough cells to score. Rab8a (RAB8A, member RAS oncogene family) gave p65 translocation robust z-score 1.14; nuclear/cytoplasmic p65 ratio, rep 1 = 1.57; nuclear/cytoplasmic p65 ratio, rep 2 = 1.78; low cell count flag enough cells to score. Depletion of Gpc3 (glypican 3) resulted in: p65 translocation robust z-score 0.82; nuclear/cytoplasmic p65 ratio, rep 1 = 1.55; nuclear/cytoplasmic p65 ratio, rep 2 = 1.48; low cell count flag enough cells to score. Tex13a (testis expressed 13A) showed p65 translocation robust z-score 2.08; nuclear/cytoplasmic p65 ratio, rep 1 = 1.9; nuclear/cytoplasmic p65 ratio, rep 2 = 1.45; low cell count flag enough cells to score.

Depletion of Lipt2 (lipoyl(octanoyl) transferase 2 (putative)) resulted in: p65 translocation robust z-score -0.96; nuclear/cytoplasmic p65 ratio, rep 1 = 1.31; nuclear/cytoplasmic p65 ratio, rep 2 = 1.33; low cell count flag enough cells to score. With knock-down of 4921524J17Rik (RIKEN cDNA 4921524J17 gene), the record shows nuclear/cytoplasmic p65 ratio, rep 1 = 1.52; nuclear/cytoplasmic p65 ratio, rep 2 = 1.78; low cell count flag fewer than 50 cells per well; well left out of scoring.

Reprinted from the listing for reference:
Rbpj — p65 translocation robust z-score = 0.19; nuclear/cytoplasmic p65 ratio, rep 1 = 1.6; nuclear/cytoplasmic p65 ratio, rep 2 = 1.49; low cell count flag = enough cells to score
Atp2a1 (ATPase, Ca++ transporting, cardiac muscle, fast twitch 1) — p65 translocation robust z-score = 0.27; nuclear/cytoplasmic p65 ratio, rep 1 = 1.65; nuclear/cytoplasmic p65 ratio, rep 2 = 1.66; low cell count flag = enough cells to score
